These results are taken from PMC5758809.

These are yes or no findings as the source states them, for the method shown. Binding can be weak; no strength is given.

Assay [1] has as its target T1, non-phosphorylated form of inhibitor-1 (human) (UniProt Q13522).
T1 sequence: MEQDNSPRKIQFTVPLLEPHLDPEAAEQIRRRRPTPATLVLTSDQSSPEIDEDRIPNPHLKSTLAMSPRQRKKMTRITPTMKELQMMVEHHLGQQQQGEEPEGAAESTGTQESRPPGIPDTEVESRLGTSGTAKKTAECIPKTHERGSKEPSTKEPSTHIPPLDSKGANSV
The assay can be described thus: NMR titration; 1H-15N HSQC of 15N-labeled non-phosphorylated inhibitor-1 (8.0 uM) without and with unlabeled recombinant PP1 (8.0 uM), pH 6.0, 293 K, 500 MHz; both purified.

In assay [2] the target is T2, PKA-thiophosphorylated form of inhibitor-1 (human) (UniProt Q13522).
T2 sequence (chain, thiophosphorylated Thr35): T1 sequence
The assay can be described thus: NMR titration; 1H-15N HSQC of 15N-labeled PKA-thiophosphorylated inhibitor-1 (40 uM) titrated with unlabeled recombinant PP1 (6.0 uM and 8.5 uM), pH 6.0, 293 K; inhibitor-1 is dephosphorylated by PP1 during the experiment; both purified.

Take recombinant PP1 (enzyme): the binding entry in assay [1] is reported as “binds weakly”; in assay [2], “binds”.
